Usually Kd stands for the equilibrium constant for the complex coming apart. The low end stands for tighter binding, the high end for weaker binding.

The assay addresses T1, TNFR1 (Homo sapiens, UniProt P19438).
T1 construct: purchased Genscript
T1 sequence (P19438 30-455): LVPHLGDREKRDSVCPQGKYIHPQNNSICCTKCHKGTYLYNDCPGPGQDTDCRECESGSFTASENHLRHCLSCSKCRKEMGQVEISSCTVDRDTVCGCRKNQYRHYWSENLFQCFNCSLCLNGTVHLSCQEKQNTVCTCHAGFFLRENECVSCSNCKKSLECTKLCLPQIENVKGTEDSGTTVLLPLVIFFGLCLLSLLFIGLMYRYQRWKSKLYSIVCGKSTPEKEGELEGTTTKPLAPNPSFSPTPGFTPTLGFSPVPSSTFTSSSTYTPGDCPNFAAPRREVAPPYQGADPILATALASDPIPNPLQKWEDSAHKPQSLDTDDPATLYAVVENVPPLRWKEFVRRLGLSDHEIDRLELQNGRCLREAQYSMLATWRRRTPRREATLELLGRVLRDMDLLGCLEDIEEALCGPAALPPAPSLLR
Put plainly: Surface plasmon resonance measurement of DAvp-1 binding to immobilized TNFR1. (In general: Surface plasmon resonance follows binding to a sensor surface in real time, without labels.)

Take `CSCC[C@H](NC(=O)[C@H](CCCNC(=N)N)NC(=O)CNC(=O)[C@H](CCCNC(=N)N)NC(=O)[C@H](CC(C)C)NC(=O)[C@@H](NC(=O)[C@H](CC(C)C)NC(=O)[C@H](CO)NC(=O)[C@@H](N)CC(N)=O)C(C)C)C(=O)N[C@@H](CCCNC(=N)N)C(=O)N[C@@H](CC(=O)O)C(=O)N[C@H](C(=O)N[C@@H](CCCCN)C(=O)N[C@H](C(=O)N[C@@H](CCCNC(=N)N)C(=O)N[C@@H](CC(=O)O)C(=O)N[C@@H](CC(=O)O)C(=O)NCC(=O)N[C@@H](CCCNC(=N)N)C(=O)N[C@@H](CCCCN)C(=O)N[C@@H](CO)C(=O)N1CCC[C@H]1C(=O)N[C@@H](CO)C(=O)N[C@@H](Cc1c[nH]cn1)C(=O)N[C@@H](Cc1c[nH]cn1)C(=O)N[C@@H](CO)C(=O)N[C@@H](CCCCN)C(=O)N[C@@H](Cc1ccccc1)C(=O)N[C@@H](CO)C(=O)NCC(=O)NCC(=O)N[C@H](C(=O)N[C@@H](CCCNC(=N)N)C(=O)N[C@@H](CC(N)=O)C(=O)N[C@@H](Cc1c[nH]c2ccccc12)C(=O)N[C@@H](CCC(N)=O)C(=O)N[C@@H](CCCCN)C(=O)N[C@@H](CC(C)C)C(=O)N[C@H](C(=O)N[C@@H](CCCCN)C(=O)N[C@@H](CC(C)C)C(=O)O)C(C)C)[C@@H](C)O)C(C)C)C(C)C` [DAvp-1]: binding was put at a Kd of 45.4 µM.

Source of the values: paper PMC8878721, “Screening of TNFR1 Binding Peptides from Deinagkistrodon acutus Venom through Phage Display” (Toxins, 2022).
